Assay results as given in the supplement of paper PMC12067093, “Discovery and optimisation of a covalent ligand for TRIM25 and its application to targeted protein ubiquitination” (Chemical Science, 2025).
This is one part of the list.

By UniProt entry, the sequences of proteins in these tests, tags left out. Where a name states a change or a piece, a line headed by the entry shows the natural chain unless it says otherwise.
UniProt O95248: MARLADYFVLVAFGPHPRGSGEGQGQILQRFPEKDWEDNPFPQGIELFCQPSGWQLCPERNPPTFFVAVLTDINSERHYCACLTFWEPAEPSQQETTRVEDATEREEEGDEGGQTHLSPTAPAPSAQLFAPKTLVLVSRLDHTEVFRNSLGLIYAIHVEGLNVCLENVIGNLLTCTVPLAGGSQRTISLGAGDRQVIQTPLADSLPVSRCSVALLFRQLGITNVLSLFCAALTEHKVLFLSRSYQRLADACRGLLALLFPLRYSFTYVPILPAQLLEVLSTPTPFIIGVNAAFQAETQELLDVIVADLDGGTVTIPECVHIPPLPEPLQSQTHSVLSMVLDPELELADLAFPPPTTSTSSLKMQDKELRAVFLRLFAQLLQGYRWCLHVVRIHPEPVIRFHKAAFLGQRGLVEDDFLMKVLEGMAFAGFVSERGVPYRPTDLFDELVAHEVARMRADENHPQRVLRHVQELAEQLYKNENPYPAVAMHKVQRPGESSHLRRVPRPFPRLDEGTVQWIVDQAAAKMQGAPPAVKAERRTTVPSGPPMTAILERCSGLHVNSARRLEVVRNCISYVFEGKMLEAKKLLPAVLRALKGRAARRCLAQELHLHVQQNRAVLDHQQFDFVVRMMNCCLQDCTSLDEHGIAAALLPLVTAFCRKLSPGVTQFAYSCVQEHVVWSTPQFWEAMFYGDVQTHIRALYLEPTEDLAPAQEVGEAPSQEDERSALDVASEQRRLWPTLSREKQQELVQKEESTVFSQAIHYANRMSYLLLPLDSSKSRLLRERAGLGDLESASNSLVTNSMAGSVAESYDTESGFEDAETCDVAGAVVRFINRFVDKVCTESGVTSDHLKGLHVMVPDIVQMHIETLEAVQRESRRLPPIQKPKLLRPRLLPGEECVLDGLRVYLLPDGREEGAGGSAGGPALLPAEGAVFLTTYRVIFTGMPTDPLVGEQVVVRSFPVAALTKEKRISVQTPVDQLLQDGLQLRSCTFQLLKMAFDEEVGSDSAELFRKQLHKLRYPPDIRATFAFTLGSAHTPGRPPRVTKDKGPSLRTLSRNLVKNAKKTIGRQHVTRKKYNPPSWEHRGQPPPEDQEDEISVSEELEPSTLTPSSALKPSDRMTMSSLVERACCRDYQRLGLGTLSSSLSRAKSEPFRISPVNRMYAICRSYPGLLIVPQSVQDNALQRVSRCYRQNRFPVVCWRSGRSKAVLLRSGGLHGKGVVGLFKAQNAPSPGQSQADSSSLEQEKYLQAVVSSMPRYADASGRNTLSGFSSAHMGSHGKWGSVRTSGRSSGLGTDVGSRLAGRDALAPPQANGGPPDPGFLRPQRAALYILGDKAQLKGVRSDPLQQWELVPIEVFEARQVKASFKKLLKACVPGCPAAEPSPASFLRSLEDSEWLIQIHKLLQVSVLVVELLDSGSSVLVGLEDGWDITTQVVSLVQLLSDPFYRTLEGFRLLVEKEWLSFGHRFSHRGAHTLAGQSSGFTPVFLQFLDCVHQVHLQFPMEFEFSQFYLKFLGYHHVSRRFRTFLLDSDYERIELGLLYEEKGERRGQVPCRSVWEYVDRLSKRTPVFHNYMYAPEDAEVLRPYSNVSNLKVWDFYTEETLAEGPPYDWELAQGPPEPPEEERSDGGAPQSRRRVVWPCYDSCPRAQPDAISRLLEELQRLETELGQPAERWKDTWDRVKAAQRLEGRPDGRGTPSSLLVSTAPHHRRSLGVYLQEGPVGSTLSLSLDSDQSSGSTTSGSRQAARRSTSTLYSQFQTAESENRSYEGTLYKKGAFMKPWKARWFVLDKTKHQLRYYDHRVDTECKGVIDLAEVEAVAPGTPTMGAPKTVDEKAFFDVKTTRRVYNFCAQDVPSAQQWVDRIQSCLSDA
UniProt Q9UQR0: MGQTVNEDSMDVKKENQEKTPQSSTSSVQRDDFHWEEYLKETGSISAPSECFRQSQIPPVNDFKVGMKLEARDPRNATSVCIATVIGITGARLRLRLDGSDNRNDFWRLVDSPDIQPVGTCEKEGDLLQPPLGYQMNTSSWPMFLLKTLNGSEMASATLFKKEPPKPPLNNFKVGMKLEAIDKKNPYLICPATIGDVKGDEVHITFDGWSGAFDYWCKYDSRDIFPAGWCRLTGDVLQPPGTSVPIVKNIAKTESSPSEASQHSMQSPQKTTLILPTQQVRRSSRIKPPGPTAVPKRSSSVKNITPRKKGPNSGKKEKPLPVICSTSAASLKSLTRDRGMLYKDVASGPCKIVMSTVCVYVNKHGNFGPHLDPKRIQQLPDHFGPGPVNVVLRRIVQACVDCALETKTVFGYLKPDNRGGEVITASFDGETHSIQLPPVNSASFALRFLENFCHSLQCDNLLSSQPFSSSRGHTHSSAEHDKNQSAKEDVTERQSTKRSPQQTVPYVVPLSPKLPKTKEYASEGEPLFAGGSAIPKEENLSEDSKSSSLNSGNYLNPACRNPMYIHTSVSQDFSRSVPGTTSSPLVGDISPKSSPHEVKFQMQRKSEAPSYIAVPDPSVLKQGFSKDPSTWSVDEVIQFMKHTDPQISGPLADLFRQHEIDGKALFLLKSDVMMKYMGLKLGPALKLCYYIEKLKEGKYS
UniProt Q9Y6B6: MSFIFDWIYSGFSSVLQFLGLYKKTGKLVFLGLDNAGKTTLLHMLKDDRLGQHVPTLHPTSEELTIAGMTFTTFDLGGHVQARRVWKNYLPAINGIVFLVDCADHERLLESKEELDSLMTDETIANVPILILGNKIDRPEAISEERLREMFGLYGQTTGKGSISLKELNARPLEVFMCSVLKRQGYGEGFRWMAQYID
UniProt P53992: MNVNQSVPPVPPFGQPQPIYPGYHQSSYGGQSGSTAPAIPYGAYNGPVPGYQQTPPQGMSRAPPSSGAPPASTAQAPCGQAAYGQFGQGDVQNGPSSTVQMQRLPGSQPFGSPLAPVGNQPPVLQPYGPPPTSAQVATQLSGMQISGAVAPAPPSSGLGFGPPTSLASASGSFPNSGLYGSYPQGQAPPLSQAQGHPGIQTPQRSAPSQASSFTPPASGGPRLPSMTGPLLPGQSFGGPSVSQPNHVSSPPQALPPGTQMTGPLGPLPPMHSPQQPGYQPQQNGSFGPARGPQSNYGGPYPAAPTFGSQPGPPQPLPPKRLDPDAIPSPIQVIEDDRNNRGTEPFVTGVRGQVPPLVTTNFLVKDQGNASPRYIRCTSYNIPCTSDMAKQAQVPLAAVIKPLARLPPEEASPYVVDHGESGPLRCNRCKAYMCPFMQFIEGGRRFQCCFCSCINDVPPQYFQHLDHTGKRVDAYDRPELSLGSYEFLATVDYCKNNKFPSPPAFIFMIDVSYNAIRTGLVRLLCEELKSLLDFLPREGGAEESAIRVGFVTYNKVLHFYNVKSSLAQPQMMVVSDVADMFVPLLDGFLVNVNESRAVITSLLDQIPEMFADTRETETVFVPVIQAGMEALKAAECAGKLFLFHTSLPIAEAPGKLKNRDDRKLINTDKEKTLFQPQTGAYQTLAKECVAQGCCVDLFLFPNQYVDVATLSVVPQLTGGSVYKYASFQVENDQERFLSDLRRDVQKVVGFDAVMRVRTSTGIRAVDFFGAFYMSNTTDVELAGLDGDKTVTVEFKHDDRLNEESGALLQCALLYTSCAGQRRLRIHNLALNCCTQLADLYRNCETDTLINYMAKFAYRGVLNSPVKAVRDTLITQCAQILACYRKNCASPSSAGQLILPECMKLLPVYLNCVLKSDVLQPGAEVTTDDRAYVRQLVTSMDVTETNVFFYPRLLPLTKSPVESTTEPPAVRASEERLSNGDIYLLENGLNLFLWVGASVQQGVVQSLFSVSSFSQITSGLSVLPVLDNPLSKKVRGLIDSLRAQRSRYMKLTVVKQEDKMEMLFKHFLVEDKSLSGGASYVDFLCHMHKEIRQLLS
UniProt Q14160: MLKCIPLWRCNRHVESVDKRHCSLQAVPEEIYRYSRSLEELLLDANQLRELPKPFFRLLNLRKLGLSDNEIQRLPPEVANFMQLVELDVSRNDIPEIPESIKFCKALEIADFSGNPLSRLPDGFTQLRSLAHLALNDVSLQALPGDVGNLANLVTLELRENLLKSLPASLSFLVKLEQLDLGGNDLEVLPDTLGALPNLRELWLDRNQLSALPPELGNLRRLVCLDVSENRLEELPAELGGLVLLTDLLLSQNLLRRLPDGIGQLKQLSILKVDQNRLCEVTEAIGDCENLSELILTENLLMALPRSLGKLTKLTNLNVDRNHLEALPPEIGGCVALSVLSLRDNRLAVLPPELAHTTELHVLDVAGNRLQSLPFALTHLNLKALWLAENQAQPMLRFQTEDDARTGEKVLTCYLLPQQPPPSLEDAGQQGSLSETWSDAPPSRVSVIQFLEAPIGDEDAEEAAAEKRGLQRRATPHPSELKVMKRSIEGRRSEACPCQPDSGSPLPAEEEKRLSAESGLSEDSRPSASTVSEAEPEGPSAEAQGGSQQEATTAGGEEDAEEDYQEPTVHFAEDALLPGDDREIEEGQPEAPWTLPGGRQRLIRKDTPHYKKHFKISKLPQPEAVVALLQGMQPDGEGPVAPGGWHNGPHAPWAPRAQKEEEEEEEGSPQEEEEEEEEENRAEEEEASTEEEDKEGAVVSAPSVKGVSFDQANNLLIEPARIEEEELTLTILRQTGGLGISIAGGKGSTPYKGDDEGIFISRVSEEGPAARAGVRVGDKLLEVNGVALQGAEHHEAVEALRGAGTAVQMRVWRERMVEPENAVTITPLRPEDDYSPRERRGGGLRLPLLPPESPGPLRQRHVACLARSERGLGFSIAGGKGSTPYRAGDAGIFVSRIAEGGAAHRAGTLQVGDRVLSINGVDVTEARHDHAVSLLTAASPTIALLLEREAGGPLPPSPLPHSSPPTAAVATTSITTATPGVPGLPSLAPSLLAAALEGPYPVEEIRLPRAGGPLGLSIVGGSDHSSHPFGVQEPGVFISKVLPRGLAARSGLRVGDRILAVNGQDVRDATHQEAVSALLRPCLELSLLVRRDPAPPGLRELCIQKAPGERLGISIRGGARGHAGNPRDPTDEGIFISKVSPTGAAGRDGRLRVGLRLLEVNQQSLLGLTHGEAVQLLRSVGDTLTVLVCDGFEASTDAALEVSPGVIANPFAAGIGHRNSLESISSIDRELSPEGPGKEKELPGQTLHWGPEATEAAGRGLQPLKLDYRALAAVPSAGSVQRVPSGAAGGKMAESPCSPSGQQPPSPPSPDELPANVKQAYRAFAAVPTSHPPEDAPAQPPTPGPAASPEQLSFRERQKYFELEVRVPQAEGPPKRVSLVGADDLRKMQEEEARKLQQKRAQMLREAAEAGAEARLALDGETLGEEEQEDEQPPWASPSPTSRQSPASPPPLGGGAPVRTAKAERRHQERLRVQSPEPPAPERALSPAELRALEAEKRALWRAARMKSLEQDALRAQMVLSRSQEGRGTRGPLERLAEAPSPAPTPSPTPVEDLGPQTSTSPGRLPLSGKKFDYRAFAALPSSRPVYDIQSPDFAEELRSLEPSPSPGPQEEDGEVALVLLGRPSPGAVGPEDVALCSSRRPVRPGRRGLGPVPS
UniProt Q9HD40: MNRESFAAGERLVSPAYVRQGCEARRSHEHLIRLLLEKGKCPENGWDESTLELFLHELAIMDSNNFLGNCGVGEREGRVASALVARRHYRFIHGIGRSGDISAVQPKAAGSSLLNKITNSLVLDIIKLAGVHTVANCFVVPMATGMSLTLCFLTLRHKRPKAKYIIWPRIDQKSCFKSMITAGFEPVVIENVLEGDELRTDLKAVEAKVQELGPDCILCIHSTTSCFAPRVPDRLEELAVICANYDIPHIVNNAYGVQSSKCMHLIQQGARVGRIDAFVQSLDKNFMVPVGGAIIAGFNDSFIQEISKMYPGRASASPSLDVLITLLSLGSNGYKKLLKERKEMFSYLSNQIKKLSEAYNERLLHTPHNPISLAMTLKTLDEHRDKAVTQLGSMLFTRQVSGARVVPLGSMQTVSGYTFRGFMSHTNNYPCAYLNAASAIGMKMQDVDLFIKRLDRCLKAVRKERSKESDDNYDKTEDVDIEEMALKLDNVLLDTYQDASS
UniProt O75446: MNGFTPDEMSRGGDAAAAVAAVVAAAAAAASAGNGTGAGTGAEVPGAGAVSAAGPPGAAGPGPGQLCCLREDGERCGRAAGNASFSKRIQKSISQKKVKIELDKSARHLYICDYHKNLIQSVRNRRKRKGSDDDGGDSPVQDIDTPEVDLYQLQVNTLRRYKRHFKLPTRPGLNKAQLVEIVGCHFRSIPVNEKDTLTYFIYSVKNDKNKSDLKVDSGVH
UniProt P55735: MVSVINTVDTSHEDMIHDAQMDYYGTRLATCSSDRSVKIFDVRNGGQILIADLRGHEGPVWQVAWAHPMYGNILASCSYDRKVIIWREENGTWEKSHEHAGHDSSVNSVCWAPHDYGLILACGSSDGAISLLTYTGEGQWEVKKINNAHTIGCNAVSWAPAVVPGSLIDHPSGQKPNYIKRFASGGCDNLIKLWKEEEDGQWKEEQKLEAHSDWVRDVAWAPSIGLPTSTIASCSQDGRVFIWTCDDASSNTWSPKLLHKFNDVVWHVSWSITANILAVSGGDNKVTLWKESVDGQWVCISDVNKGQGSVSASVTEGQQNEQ

Compound: Cc1cc(ccc1-c1ccccc1)C(=O)N1CCCN(CC1)C(=O)CCl [compound 10]
Assay: probe-labelled cysteine peptide fold change vs DMSO (competition) (log2 fold change); higher = less target engagement (more negative = stronger competition)
Details: THP-1, incubation time: 4 h
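Further: competitive profiling in live THP-1 cells: cysteine peptides tagged with an iodoacetamide desthiobiotin (IA-DTB) probe, intensity after compound treatment relative to DMSO-treated cells.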

Target	probe-labelled cysteine peptide fold change (10 µM)	probe-labelled cysteine peptide fold change (50 µM)
SCLT1_Q96NL6_408_LTEELSALQMECAEK (UniProt Q96NL6)	0.0149	0.0266
SBF1_O95248_839_VCTESGVTSDHLK (UniProt O95248)	0.153	0.155
SCIN_Q9Y6U3_619_LYGCSNK (UniProt Q9Y6U3)	-0.185	-0.0102
SCML2_Q9UQR0_51_ETGSISAPSECFR (UniProt Q9UQR0)	-0.0591	-0.197
SEC24B_O95487_887_YSAGCIYYYPSFHYTHNPSQAEK (UniProt O95487)	0.182	0.0862
SCAPER_Q9BY12_336_DSLHSCDHPLAEK (UniProt Q9BY12)	-0.263	-0.404
SAR1B_Q9Y6B6_102_NYLPAINGIVFLVDCADHER (UniProt Q9Y6B6)	0.248	0.291
SEC24C_P53992_809+816_HDDRLNEESGALLQCALLYTSCAGQR (UniProt P53992)	0.15	-0.152
SEL1L_Q9UBV2_127_KPALTAIEGTAHGEPCHFPFLFLDK (UniProt Q9UBV2)	-0.085	0.301
SEC24C_P53992_832_IHNLALNCCTQLADLYR (UniProt P53992)	0.245	0.381
SEC23B_Q15437_180_MVQVHELSCEGISK (UniProt Q15437)	0.0112	0.141
SAR1A_Q9NR31_102_NYLPAINGIVFLVDCADHSR (UniProt Q9NR31)	0.119	0.185
SDCCAG8_Q86SQ7_361_ALIQCDQLR (UniProt Q86SQ7)	0.155	0.038
SCRIB_Q14160_1612_PSPGAVGPEDVALCSSR (UniProt Q14160)	-0.419	-0.534
SAMSN1_Q9NSI8_165_LDDDGPYSGPFCGR (UniProt Q9NSI8)	0.301	0.292
SCAPER_Q9BY12_71_QSTAVDCK (UniProt Q9BY12)	-0.329	-0.143
SDSL_Q96GA7_276_MLVEPACGAALAAIYSGLLR (UniProt Q96GA7)	0.15	0.203
SAR1B_Q9Y6B6_178_ELNARPLEVFMCSVLKR (UniProt Q9Y6B6)	-0.195	-0.622
SCML2_Q9UQR0_458_FLENFCHSLQCDNLLSSQPFSSSR (UniProt Q9UQR0)	0.00126	-0.195
SEMA4A_Q9H3S1_339_SSAVCAFSLLDIER (UniProt Q9H3S1)	-0.137	-0.579

Target	probe-labelled cysteine peptide fold change (10 µM)	probe-labelled cysteine peptide fold change (50 µM)
SEC31A_O94979_279_GILAIAWSMADPELLLSCGK (UniProt O94979)	-0.305	-0.4
SBF1_O95248_987_SCTFQLLK (UniProt O95248)	0.0279	0.0984
SART1_O43290_645_GLAAALLLCQNK (UniProt O43290)	-0.175	-0.114
SEC62_Q99442_55_AVDCLLDSK (UniProt Q99442)	-0.0244	-0.177
SCCPDH_Q8NBX0_98_QATVVLNCVGPYR (UniProt Q8NBX0)	0.294	0.238
SATB2_Q9UPW6_539_TLWENLCTIR (UniProt Q9UPW6)	0.0286	0.307
SEPSECS_Q9HD40_431_GFMSHTNNYPCAYLNAASAIGMK (UniProt Q9HD40)	0.0208	-0.0369
SAP30_O75446_184_AQLVEIVGCHFR (UniProt O75446)	0.0105	-0.181
SCARB2_Q14108_274_DEVLYVFPSDFCR (UniProt Q14108)	0.152	0.161
SEPSECS_Q9HD40_262_CMHLIQQGAR (UniProt Q9HD40)	-0.072	-0.0413
SEC13_P55735_77_GHEGPVWQVAWAHPMYGNILASCSYDR (UniProt P55735)	-0.106	-0.12
SCML2_Q9UQR0_324_EKPLPVICSTSAASLK (UniProt Q9UQR0)	-0.148	-0.344
SCAI_Q8N9R8_415_EMHCLHPGDLYPFTR (UniProt Q8N9R8)	0.0781	-0.407
SBF1_O95248_1197_FPVVCWR (UniProt O95248)	-0.139	-0.0383
SBDS_Q9Y3A5_210_VIESEDYGQQLEIVCLIDPGCFR (UniProt Q9Y3A5)	0.00796	-0.472
SEC63_Q9UGP8_295_NEPPLTCPYSLK (UniProt Q9UGP8)	-0.343	-1.34
SEH1L_Q96EE3_49_SESGDWHCTASWK (UniProt Q96EE3)	0.204	0.0563
SCRIB_Q14160_22_HCSLQAVPEEIYR (UniProt Q14160)	0.0988	-0.184
SCMH1_Q96GD3_225_DIFPVGWCSLTGDNLQPPGTK (UniProt Q96GD3)	-0.098	0.419
